The values below come from US20160061835A1 (BAYLOR COLLEGE OF MEDICINE, published 2016).

The chains behind the UniProt entries cited, without tags or fusion partners. Residues count along the entry.
UniProt Q83884, residues 229-519: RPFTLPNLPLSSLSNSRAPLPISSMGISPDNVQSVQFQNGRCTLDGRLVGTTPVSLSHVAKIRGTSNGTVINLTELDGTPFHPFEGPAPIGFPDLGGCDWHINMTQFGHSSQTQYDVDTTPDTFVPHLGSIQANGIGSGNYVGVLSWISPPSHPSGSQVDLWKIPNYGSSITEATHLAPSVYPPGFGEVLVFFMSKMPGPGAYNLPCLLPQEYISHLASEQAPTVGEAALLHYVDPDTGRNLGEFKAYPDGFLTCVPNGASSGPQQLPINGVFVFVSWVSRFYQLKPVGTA

Results are given in words; binding and its absence hold for the method and conditions named. Some results given as binding are weak or reduced against the parent protein; the word gives no strength.

The target in the test is purified NV P-domain (Norwalk virus (genotype GI.1)) (UniProt Q83884). The experiment in a line: phage ELISA on adsorbed purified NV P-domain, HRP-conjugated M13 phage antibody. Background: In an ELISA, binding on a coated surface is turned into a signal by an enzyme label.

On to LPSWYLAYQKII (peptide, not shown: large carriers) [NV-N-R5-1 phage], for which the binding result was “binds”.
